# Data from the supplement of paper PMC8551327.
# Structures can show the parent of a compound that is named as a salt. Some of the results follow. Cut-off read from the data, not from the text of the source: active = 1.25 or more and inactive = the rest. Single values are uncertain, as repeats are few or missing.
# Tested on: Kcc2-LUC knock-in mouse primary cortical neurons (Kcc2 promoter reporter)
# Test: Kcc2 promoter-driven luciferase activity relative to vehicle control (fold of vehicle (ratio)); higher = stronger Kcc2 promoter activation (Kcc2 expression enhancer)
# Conditions: 100 nM; 48 h
row,Structure (SMILES),Kcc2 promoter-driven luciferase activity
1,[Cl][Cd][Cl] [Cadmium Chloride],inactive: 1.15
2,CC[C@H](C)[C@H]1NC(=O)[C@@H](NC(=O)[C@@H](CC(C)C)N(C)C(=O)[C@@H]2CCCN2C(=O)C(C)O)[C@@H](C)OC(=O)[C@H](Cc2ccc(OC)cc2)N(C)C(=O)[C@@H]2CCCN2C(=O)[C@H](CC(C)C)NC(=O)[C@@H](C)C(=O)[C@H](C(C)C)OC(=O)C[C@@H]1O (some centres not stated) [Didemnin B],inactive: 0.49
3,COc1cc([C@@H]2c3cc4c(cc3[C@H](O)[C@H]3COC(=O)[C@H]23)OCO4)cc(OC)c1OC [Podofilox],inactive: 0.36
4,C=C[C@H]1CN2CC[C@H]1C[C@@H]2[C@@H](O)c1ccnc2ccccc12 [Cinchonine],active: 1.34
5,COc1ccc(C2C=C(c3ccc4c(c3)OCO4)Oc3c2c(=O)oc2ccccc32)cc1OC (configuration not stated),inactive: 0.8
6,C=C(C)[C@H]1Cc2c(ccc3c2O[C@@H]2COc4cc(OC)c(OC)cc4[C@@H]2C3=O)O1 [Rotenone],inactive: 0.22
7,CC(O)CCC(=O)c1ccoc1 (configuration not stated) [4-Ipomeanol],active: 2.37
8,CC(C)[C@@H]1NC(=O)[C@H](C)OC(=O)[C@@H](C(C)C)NC(=O)[C@@H](C(C)C)OC(=O)[C@H](C(C)C)NC(=O)[C@H](C)OC(=O)[C@@H](C(C)C)NC(=O)[C@@H](C(C)C)OC(=O)[C@H](C(C)C)NC(=O)[C@H](C)OC(=O)[C@@H](C(C)C)NC(=O)[C@@H](C(C)C)OC1=O [Valinomycin],inactive: 0.92
9,C[C@@H]1C[C@H]2CC[C@H](O2)[C@H](C)C(=O)O[C@@H](C)C[C@@H]2CC[C@@H](O2)[C@@H](C)C(=O)O[C@H](C)C[C@H]2CC[C@@H](O2)[C@H](C)C(=O)O[C@@H](C)C[C@@H]2CC[C@@H](O2)[C@@H](C)C(=O)O1 [Nonactin],inactive: 0.5
10,COc1ccc(C(=O)O[C@H]2CC[C@@]3(C)[C@@H]4CC[C@H]5[C@]6(O)C[C@H](O)[C@@]7(O)[C@@H](CN8C[C@@H](C)CC[C@H]8[C@@]7(C)O)[C@]6(O)C[C@@]53O[C@]24O)cc1OC [Veratridine],active: 1.39
11,COC(=O)[C@@]12OC[C@]34[C@H]([C@@H](O)[C@@H]1O)[C@@]1(C)CC(=O)C(O)=C(C)[C@@H]1C[C@H]3OC(=O)[C@H](OC(=O)/C=C(\C)C(C)C)[C@@H]24,inactive: 0.86
12,O=P1(N(CCCl)CCCl)NCCCO1 (configuration not stated) [Cyclophosphamide],inactive: 1.08
13,N.N.[Cl][Pt][Cl] [Cisplatin],inactive: 1.09
14,CC(C)(O)/C=C/C(=O)[C@](C)(O)[C@H]1[C@H](O)C[C@@]2(C)[C@@H]3CC=C4[C@@H](C=C(O)C(=O)C4(C)C)[C@]3(C)C(=O)C[C@]12C [Cucurbitacin I],inactive: 0.99
15,"CC1=CC23C(COC(=O)C24CO4)C(C(=O)O)=CC3C1C.NCc1ccccc1 (configuration not stated) [AT 116, benzylamine salt]",inactive: 0.95
16,COc1ccc2c(c1OC)CN1CCc3cc4c(cc3[C@@H]1C2)OCO4 [Canadine],inactive: 0.5
17,C/C=C1\C[C@@H](C)[C@](O)(CO)C(=O)OCC2=CCN3CC[C@@H](OC1=O)[C@@H]23 [Retrorsine],inactive: 0.894
18,COC(=O)C1C(O)C(C)C(O)C(C)/C=C\C=C(C)C(=O)Nc2c(C)c(OC(C)=O)c3c(c2O)C(=O)C(C)=C2OCOC(=C23)C(C)=CC(C)(O)C(O)C(C)C1O (configuration not stated),inactive: 0.99
19,CO[C@@H]1C[C@@H](C[C@H]2CC[C@H](C)[C@H]([C@@H](C)C(=O)O)O2)O[C@]2(O[C@](C)([C@H]3CC[C@@](C)([C@@H]4O[C@@H]([C@H]5O[C@@](O)(CO)[C@H](C)C[C@@H]5C)C[C@@H]4C)O3)C[C@H]2C)[C@@H]1C [Nigericin],inactive: 0.88
20,CC1=C[C@H]2O[C@@H]3[C@H](O)[C@@H](O)[C@@](C)([C@@]2(CO)CC1)[C@]31CO1,inactive: 0.58
21,CCC[CH2][Pb]([Cl])([CH2]CCC)[CH2]CCC [Tributyl(chloro)plumbane],inactive: 0.45
22,Cc1c(N)nc([C@H](CC(N)=O)NC[C@H](N)C(N)=O)nc1C(=O)N[C@H](C(=O)N[C@H](C)[C@@H](O)[C@H](C)C(=O)N[C@H](C(=O)NCCc1nc(-c2nc(C(=O)NCCC[S+](C)C)cs2)cs1)[C@@H](C)O)[C@@H](OC1OC(CO)C(O)C(O)C1OC1OC(CO)C(O)C(OC(N)=O)C1O)c1cnc[nH]1 (some centres not stated) [Bleomycin sulfate],inactive: 1.22

# Looked up by structure from above:
row,Structure (SMILES),Kcc2 promoter-driven luciferase activity
5,COc1ccc(C2C=C(c3ccc4c(c3)OCO4)Oc3c2c(=O)oc2ccccc32)cc1OC (configuration not stated),inactive: 0.8
7,CC(O)CCC(=O)c1ccoc1 (configuration not stated) [4-Ipomeanol],active: 2.37
